The supplement of paper PMC10849652
This is one part of the list. Residues, ends and D or L forms follow the SMILES beside them. *: point of attachment. Cbz = O=C(OCc1ccccc1)*

Amino acid sequences for entries named in this document (tags omitted). A change or cut given only in a name is not applied to a line headed by its entry.
UniProt Q96T21: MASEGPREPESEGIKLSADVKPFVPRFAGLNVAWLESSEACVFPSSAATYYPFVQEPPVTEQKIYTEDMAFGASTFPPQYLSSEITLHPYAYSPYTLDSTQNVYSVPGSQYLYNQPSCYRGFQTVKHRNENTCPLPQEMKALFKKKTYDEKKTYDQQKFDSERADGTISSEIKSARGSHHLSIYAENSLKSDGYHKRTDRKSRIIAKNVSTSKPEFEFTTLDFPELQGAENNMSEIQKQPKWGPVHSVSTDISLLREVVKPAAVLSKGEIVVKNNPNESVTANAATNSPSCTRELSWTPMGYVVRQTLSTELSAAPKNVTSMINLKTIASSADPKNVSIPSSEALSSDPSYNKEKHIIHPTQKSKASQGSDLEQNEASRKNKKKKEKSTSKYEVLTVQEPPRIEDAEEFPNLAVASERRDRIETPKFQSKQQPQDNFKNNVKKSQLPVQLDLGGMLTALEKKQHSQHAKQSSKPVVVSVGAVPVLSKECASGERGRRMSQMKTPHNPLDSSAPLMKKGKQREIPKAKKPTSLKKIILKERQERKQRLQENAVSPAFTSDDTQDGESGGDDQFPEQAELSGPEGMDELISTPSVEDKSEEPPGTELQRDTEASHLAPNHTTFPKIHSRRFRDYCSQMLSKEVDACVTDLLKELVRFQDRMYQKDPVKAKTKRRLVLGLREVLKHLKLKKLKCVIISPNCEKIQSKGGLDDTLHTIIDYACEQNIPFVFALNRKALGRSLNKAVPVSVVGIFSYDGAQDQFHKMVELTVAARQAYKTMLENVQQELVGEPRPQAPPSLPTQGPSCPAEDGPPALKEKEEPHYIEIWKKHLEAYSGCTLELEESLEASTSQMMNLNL
UniProt Q8N196: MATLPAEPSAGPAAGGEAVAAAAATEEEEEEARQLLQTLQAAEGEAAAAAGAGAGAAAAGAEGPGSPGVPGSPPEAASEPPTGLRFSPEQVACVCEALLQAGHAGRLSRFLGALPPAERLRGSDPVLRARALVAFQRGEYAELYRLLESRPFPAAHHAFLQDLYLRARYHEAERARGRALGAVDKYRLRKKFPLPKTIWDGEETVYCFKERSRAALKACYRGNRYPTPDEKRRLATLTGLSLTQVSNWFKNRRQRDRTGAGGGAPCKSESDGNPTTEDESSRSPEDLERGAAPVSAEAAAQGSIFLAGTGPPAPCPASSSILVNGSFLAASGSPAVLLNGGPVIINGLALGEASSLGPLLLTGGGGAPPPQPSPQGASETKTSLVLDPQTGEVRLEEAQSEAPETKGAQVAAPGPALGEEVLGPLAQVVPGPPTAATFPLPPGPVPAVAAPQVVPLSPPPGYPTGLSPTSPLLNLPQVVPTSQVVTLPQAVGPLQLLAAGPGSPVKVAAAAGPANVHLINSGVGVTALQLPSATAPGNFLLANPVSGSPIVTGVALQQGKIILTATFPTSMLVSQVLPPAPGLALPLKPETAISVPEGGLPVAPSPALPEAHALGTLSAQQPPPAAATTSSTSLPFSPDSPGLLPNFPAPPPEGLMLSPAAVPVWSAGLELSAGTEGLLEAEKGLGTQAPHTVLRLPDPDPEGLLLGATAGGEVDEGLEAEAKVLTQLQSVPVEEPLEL
UniProt O43255: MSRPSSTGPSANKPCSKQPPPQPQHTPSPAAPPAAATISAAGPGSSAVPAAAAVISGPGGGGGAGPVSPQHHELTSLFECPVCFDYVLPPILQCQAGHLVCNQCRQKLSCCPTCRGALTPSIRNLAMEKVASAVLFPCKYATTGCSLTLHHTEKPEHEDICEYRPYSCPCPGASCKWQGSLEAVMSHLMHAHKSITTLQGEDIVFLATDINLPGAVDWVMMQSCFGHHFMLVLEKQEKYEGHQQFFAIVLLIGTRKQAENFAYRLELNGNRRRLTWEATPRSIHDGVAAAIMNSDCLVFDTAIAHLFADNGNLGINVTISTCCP
UniProt Q96LD8: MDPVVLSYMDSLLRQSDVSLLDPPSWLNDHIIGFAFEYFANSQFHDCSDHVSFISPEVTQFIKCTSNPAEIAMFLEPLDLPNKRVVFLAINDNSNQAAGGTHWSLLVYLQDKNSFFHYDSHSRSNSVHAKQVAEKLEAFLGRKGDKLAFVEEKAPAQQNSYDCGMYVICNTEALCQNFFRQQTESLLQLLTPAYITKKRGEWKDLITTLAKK
UniProt Q9UPX8: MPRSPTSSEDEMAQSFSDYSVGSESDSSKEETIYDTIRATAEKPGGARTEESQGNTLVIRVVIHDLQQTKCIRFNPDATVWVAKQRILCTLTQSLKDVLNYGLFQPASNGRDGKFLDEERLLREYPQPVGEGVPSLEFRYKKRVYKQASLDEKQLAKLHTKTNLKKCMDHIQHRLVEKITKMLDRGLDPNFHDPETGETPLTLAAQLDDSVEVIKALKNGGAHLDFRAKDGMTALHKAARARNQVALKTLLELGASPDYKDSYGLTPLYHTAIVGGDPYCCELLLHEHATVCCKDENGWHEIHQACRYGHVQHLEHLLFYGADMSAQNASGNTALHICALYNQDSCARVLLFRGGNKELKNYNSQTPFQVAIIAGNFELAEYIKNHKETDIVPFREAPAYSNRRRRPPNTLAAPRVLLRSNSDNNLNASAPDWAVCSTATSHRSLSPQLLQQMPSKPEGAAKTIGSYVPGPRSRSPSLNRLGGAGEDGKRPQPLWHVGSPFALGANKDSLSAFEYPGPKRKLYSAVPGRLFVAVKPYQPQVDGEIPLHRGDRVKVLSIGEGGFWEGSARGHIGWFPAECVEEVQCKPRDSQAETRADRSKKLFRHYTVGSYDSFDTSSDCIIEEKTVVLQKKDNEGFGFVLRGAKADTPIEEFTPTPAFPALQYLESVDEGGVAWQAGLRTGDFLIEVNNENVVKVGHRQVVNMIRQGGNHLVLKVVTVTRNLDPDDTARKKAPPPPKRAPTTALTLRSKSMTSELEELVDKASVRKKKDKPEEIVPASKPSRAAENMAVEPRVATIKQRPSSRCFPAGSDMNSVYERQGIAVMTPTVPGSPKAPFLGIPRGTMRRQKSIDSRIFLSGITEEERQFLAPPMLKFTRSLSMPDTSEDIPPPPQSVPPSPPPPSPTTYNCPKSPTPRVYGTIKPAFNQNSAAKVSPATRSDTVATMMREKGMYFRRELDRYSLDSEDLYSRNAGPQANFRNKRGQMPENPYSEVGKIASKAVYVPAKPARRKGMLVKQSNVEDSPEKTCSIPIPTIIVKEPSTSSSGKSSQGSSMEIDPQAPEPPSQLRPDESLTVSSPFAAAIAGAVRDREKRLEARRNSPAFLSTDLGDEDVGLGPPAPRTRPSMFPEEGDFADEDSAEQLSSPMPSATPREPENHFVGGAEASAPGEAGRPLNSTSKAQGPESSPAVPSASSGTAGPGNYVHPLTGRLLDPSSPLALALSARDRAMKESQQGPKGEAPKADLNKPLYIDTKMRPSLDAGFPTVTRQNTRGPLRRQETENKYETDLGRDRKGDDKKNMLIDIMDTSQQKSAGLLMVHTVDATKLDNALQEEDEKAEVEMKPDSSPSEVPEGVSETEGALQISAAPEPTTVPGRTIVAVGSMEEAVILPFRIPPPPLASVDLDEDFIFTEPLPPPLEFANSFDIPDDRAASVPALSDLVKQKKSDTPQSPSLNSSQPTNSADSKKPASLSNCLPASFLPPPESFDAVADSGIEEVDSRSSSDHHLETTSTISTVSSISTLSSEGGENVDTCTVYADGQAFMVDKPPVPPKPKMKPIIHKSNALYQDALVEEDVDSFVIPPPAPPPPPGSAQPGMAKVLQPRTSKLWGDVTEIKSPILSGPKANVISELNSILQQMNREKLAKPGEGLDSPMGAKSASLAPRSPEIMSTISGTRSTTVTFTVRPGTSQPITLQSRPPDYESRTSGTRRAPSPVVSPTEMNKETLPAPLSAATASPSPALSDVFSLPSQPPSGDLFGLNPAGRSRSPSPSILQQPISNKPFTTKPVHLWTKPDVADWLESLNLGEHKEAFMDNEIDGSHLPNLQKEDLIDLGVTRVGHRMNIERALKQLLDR
UniProt Q9C0D9, whole entry, looked up: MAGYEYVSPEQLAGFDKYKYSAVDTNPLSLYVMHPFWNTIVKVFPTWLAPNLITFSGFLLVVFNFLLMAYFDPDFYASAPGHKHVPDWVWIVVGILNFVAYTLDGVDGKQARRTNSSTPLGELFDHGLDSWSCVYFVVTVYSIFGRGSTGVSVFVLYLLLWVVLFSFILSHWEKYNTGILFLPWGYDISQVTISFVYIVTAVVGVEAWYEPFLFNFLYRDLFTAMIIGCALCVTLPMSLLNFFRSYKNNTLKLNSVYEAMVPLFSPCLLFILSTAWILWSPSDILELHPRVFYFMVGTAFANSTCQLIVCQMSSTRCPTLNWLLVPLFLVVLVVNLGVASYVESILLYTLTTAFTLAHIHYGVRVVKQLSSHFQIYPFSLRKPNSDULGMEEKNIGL
UniProt Q15464: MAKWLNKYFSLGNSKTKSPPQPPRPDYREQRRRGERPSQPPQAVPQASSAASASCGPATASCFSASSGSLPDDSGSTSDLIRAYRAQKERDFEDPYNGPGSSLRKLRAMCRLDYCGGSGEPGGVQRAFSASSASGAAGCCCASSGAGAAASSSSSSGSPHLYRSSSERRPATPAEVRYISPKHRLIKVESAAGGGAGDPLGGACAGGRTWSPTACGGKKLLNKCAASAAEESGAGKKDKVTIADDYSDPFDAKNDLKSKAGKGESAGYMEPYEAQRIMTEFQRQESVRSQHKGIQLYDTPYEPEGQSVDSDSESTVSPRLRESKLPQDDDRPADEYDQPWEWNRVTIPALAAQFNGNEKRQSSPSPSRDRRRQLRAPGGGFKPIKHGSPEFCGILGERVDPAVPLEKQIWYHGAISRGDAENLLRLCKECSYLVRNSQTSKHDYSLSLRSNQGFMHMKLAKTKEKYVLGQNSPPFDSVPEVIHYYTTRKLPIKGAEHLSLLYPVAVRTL
UniProt Q02383: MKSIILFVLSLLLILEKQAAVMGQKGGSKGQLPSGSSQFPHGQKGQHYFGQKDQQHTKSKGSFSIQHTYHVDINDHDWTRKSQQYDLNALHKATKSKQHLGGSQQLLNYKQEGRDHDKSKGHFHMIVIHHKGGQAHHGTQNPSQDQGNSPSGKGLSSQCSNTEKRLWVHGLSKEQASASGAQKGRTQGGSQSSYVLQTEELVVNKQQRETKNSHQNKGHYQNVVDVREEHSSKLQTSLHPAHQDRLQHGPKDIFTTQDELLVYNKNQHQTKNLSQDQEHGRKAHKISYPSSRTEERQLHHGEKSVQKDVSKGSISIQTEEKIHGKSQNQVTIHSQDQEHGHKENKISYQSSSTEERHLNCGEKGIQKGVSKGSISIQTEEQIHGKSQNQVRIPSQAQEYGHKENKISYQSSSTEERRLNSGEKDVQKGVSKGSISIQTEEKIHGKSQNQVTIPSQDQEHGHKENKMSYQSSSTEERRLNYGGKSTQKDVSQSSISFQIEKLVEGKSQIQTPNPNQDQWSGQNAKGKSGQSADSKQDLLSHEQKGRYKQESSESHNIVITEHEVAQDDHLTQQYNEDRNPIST

How the values were obtained:
Experiment in all cases: log2 fold change, soluble protein after heating vs DMSO (PISA); higher = thermal stabilisation; K562 cells, 10 uM, 30 min; active = over 0.2 and 3.5 SD of the protein, either way, in both replicates (recomputed)
[1] = compound: C1=CC=C(C=C1)C2=NC(=C(N2)C3=CC=NC=C3)C4=CC(=C(C=C4)Cl)O
How it was run: (§1)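 K562 cells at 2×10^6 cells/mL were treated for 30 min with 10 μM compound, and aliquots were heated for 3 min over 48°C-58°C before pooling. Extraction used PBS with 0.5% NP-40 at 4°C, and soluble protein was the supernatant after 21,000xg for 90 min, measured by TMTpro 16plex LC-MS/MS with channel sums equalised. Thermal stability values, relative to control samples and from duplicates, are log2 fold changes.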

[2] = compound: C1CCN(C1)C(=O)NC2=CC=CC(=C2)NC3=NC=C(C(=N3)NCCC4=CN=CN4)Br
How it was run: as §1

[3] = compound: C1CN(CCC1(CC2=CC=C(C=C2)Cl)N)C3=NC=NC4=C3C=CN4
How it was run: as §1

ralimetinib = compound: CC(C)(C)Cn1c(N)nc2ccc(-c3[nH]c(C(C)(C)C)nc3-c3ccc(F)cc3)nc21 [ralimetinib]
How it was run: as §1

[4] = compound: CC(C)C[C@@H](C=O)NC(=O)[C@H](CC(C)C)NC(=O)[C@H](CC(C)C)NC(=O)OCc1ccccc1
How it was run: as §1

[5] = compound: CC1=C(C(CC(=O)N1)C2=CC=C(C=C2)C(F)(F)F)C(=O)NC3=C(C=C4C(=C3)C=NN4)F
How it was run: as §1

[6] = compound: CC1=C(C2=C(C=C1)C(=O)C3=CC=CC=C3N2CCCN)C
How it was run: as §1

[7] = compound: C/C(=N\NC(=O)C1=CC(=CC=C1)S(=O)(=O)N2CCOCC2)/C3=C(C=CC(=C3)Cl)O
How it was run: as §1

[8] = compound: C1=CC2=C(C=CC(=C2)/C=C\3/C(=O)NC(=NCC4=CC=CS4)S3)N=C1
How it was run: as §1

[9] = compound: C1=CC2=NC=CN=C2C=C1/C=C/3\C(=O)NC(=O)S3
How it was run: as §1

[10] = compound: C1=CC=C2C(=C1)C3=NNC4=CC=CC(=C43)C2=O
How it was run: as §1

IRAK-1-4 Inhibitor I = compound: C1COCCN1CCN2C3=CC=CC=C3N=C2NC(=O)C4=CC(=CC=C4)[N+](=O)[O-] [IRAK-1-4 Inhibitor I]
How it was run: as §1

ibrutinib = compound: C=CC(=O)N1CCC[C@@H](n2nc(-c3ccc(Oc4ccccc4)cc3)c3c(N)ncnc32)C1 [ibrutinib]
How it was run: as §1

[11] = compound: CC(=O)c1cnc2ccc(-c3cc(Cl)c(O)c(Cl)c3)nc2c1N[C@H]1CC[C@H](CN(C)C)CC1
How it was run: as §1

pinometostat = compound: CC(C)N(C[C@H]1O[C@@H](n2cnc3c(N)ncnc32)[C@H](O)[C@@H]1O)[C@H]1C[C@@H](CCc2nc3cc(C(C)(C)C)ccc3[nH]2)C1 [pinometostat]
How it was run: as §1

[12] = compound: C1=CC(=C(C=C1Cl)C2=NC3=NC=CN=C3C(=N2)NC4=CC=NC=C4)F
How it was run: as §1

[13] = compound: CC(C)(O)CC(=O)NCCn1ccc2ncnc(Nc3ccc(Oc4cccc(C(F)(F)F)c4)c(Cl)c3)c21
How it was run: as §1

Measured: log2 fold change

SECISBP2 (UniProt Q96T21)
inactive: [1] -0.078 | [2] -0.134 | [3] 0.292 | ralimetinib 0.245 | [4] 0.19 | [5] 0.234 | [6] 0.369

SIX5 (UniProt Q8N196)
inactive: [7] 0.027 | [8] -0.043 | [9] 0.022 | [1] -0.011 | [10] -0.084 | IRAK-1-4 Inhibitor I 0.084 | ibrutinib 0.128 | [11] -0.105 | ralimetinib -0.057 | [4] -0.013 | pinometostat -0.102

SIAH2 (UniProt O43255)
inactive: [7] 0.014 | [8] 0.087 | [9] 0.045 | [1] -0.05 | [10] -0.042 | IRAK-1-4 Inhibitor I 0.046 | ibrutinib 0.025 | [11] -0.056 | ralimetinib 0.004 | [4] 0.038 | pinometostat -0.135 | [5] 0.011

SEPTIN2 (UniProt B5MCX3)
inactive: [7] -0.226 | [8] 0.263 | [1] -0.463 | [10] 0.035 | [2] 0.217 | [3] 0.091 | [11] -0.189 | ralimetinib -0.313 | [4] 0.187 | [6] -0.065

SENP8 (UniProt Q96LD8)
inactive: IRAK-1-4 Inhibitor I -0.189 | pinometostat -0.172 | [5] 0.08

SFXN1 (UniProt D6RDG7)
inactive: [2] 0.163 | [3] 0.039 | [6] -0.179

SF1 (UniProt H7BZT1)
inactive: [1] -0.157 | ralimetinib -0.193 | [4] 0.106

SHANK2 isoform 3 (UniProt Q9UPX8)
inactive: [12] -0.082 | IRAK-1-4 Inhibitor I -0.238 | [13] 0.038 | pinometostat -0.009 | [5] -0.122

SELENOI (UniProt Q9C0D9)
inactive: [1] 0.15 | IRAK-1-4 Inhibitor I -0.234 | ralimetinib -0.161 | [4] -0.066 | pinometostat 0.166

SHB (UniProt Q15464)
inactive: [7] 0.129 | [8] 0.019 | [9] -0.134 | [10] 0.036 | [2] -0.198 | [3] 0.081 | ibrutinib -0.08 | [11] -0.181 | [6] 0.017

SEMG2 (UniProt Q02383)
inactive: [7] 1.75 | [12] 0.047 | [8] 0.237 | [9] -0.042 | [2] -0.071 | [3] 0.06 | ibrutinib -0.031 | [11] -0.148 | [13] -0.011 | [6] 0.049
active: [10] -0.562
